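A cell-based luciferase reporter for ATXN2 expression, read by light output at 24 h, with a viability multiplex.
Compounds were tested as a dilution series from about 0.0037 to 57 µM.
The number is the fitted half-maximal inhibitory concentration (AC50); a lower value means a more potent inhibitor.
Calls come from curve class and activity score: actives score 40–100, while inconclusive compounds (weak, partial, poorly fitted or single-point curves) score 1–39.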

Values are in nM.
All entries here are filed as inconclusive.
These entries are mostly ones the record files as inconclusive; other results of the assay are not listed here.
A potency from a partial, single-point or poor curve is only a rough figure.
Activity scores are not listed here.

structure,potency (nM),remark
CCCc1ccc(O)c(N=Cc2cc(Br)cc(OCC)c2O)c1,31622,"inhibitor, single point"
Cc1cccc(CN2C(=O)/C(=C\c3ccc(C(=O)NCCN4CCOCC4)cc3)Sc3ccccc32)c1,31622,"inhibitor, single point"
NS(=O)(=O)c1ccc(N2N=C(c3ccccc3)CC2c2cccc(Cl)c2)cc1 (centres undefined),19952,"inhibitor, partial curve, poor fit"
COc1cccc(/C=N/Nc2nc3ccccc3n3cnnc23)c1O,1995,"inhibitor, partial curve, poor fit"
C=CCc1cccc(/C=N/NC(=O)CCCNc2ccc(C)cc2)c1O,19952,"inhibitor, partial curve, poor fit"
Nc1nc(NCCCN2CCOCC2)nc(Nc2ccccc2F)c1[N+](=O)[O-],15848,"inhibitor, partial curve, poor fit"
CN(c1ccccc1)c1ccc(/C=N/NC(=O)CC#N)cc1,25118,"inhibitor, partial curve, poor fit"
O=C(N/N=C\c1cccnc1)c1cc(-c2ccccc2)nc2c(Cl)cccc12,28183,"inhibitor, single point"
CC(C)(C)OC(=O)CNC(=O)c1[nH]cnc1C(=O)Nc1ccc(CNC(=O)OC(C)(C)C)cc1,31622,"inhibitor, single point"
CN1CCN(c2ccc(S(=O)(=O)N3CCCCC3)cc2NC(=O)/C=C/c2ccc(Cl)c([N+](=O)[O-])c2)CC1,3162,"inhibitor, single point"
CN(C)CCCN(C(=O)c1ccco1)c1nc2ccc(Br)cc2s1,25118,"inhibitor, partial curve, poor fit"
O=C(NNc1ccnc2cc(Cl)ccc12)C1CCCCC1,1585,"inhibitor, partial curve"
NC(=O)c1cccc(-c2ccnc3c2CC(C(=O)Nc2cccc(Oc4ccccc4)c2)O3)c1 (centres undefined),28183,"inhibitor, single point"
O=C1/C(=C\c2cc(Cl)c(O)c(Cl)c2)SC(=S)N1Cc1ccccc1,14125,"inhibitor, partial curve, poor fit"
CC(C)c1cccc(C(C)C)c1Nc1cn[nH]c1,3548,"inhibitor, single point"
CCOc1ccc(-c2nnc(Nc3ccc(OC)c(C(=O)N4CCCCC4)c3)c3ccccc23)cc1,3548,"inhibitor, single point"
Cn1c(=O)c2c(nc(CN3CCN(Cc4ccccc4)CC3)n2Cc2ccc(Cl)cc2)n(C)c1=O,25118,"inhibitor, partial curve, poor fit"
CCN(CC)CCNc1ccnc2cc(Cl)ccc12,3162,"inhibitor, single point"
CC1=CC(C)(C)Nc2ccc(OC(=O)CN3C(=O)C4CCCCC4C3=O)cc21 (centres undefined),28183,"inhibitor, partial curve, poor fit"
CCN1c2ccccc2NC2N=C(OC)C(c3ccccc3)C21 (centres undefined),19952,"inhibitor, partial curve, poor fit"
COc1cc2c(cc1OC)C(C)N(C(=O)c1cc3c(s1)-c1ccccc1OC3)CC2 (centres undefined),25118,"inhibitor, partial curve, poor fit"
CCN(C(=O)c1cc2c(C)nc3ccccc3c2o1)c1cc(Cl)ccc1OC,14125,"inhibitor, partial curve, poor fit"
OC[C@@H]1CN(Cc2ccncc2)C[C@H](n2cnc3c(N4CCN(c5ccccc5)CC4)ncnc32)O1,1585,"inhibitor, partial curve"
CCC(=O)OCCNc1cc(Sc2nc3ccccc3[nH]2)c2nonc2c1[N+](=O)[O-],3981,"inhibitor, single point"
O=C(NNC1=Nc2ccccc2SC1)c1ccc(Cl)cc1,3981,"inhibitor, partial curve, poor fit"
Cc1ccc(CN(C)C(=O)CN2C(=O)NC(c3ccccc3)(c3ccccc3)C2=O)c(C)c1,4467,"inhibitor, single point"
COC1=C(C)C(O)=C(C(=O)/C=C/c2ccccc2)C(=O)C1(C)C,25118,"inhibitor, partial curve, poor fit"
CN(C)CCn1c2ccccc2c2nc3ccc([N+](=O)[O-])cc3cc21,3548,"inhibitor, full curve, poor fit"
Clc1c(Cl)c(Cl)c2n[nH]nc2c1Cl,25118,"inhibitor, single point"
CC1(C)Cc2c(c(-c3ccco3)nc3sc4c(NCCN5CCOCC5)ncnc4c23)CO1,8912,"inhibitor, partial curve, poor fit"
COc1cc(-c2ccc3sc(-c4ccsc4)c(C#CCO)c3c2)cc(OC)c1OC,15848,"inhibitor, partial curve, poor fit"
CCN(CC)CCNC(=O)c1ccc(NC(=O)c2ccccc2-c2ccc(C(F)(F)F)cc2)cc1,19952,"inhibitor, single point"
CN1CCN(c2ccc(-c3cc(NC=O)c4ncc(-c5ccc(F)c(Cl)c5)n4c3)cc2)CC1,39810,"inhibitor, single point"
N#Cc1cc2cc3c(cc2nc1SCC(=O)N1CCOCC1)OCCO3,10000,"inhibitor, single point"
CC1=C(C(=O)N(C(C)C)C(C)C)CC(CC(=O)NC2CCCC2)C(=O)N1Cc1ccc(C(C)(C)C)cc1 (centres undefined),28183,"inhibitor, single point"
Cc1ccccc1OCC(=O)N/N=C/c1cccc2cccnc12,28183,"inhibitor, partial curve, poor fit"
c1ccc(Nc2nc(N3CCCCC3)nc(N3CCNCC3)n2)cc1,22387,"inhibitor, partial curve"
COc1ccc(CCNc2ncnc3c2[nH]c2cc(OC)c(OC)cc23)cc1OC,22387,"inhibitor, partial curve, poor fit"
O=C(CSc1ccc2c(c1)OCCO2)Nc1ccc(Cl)cn1,31622,"inhibitor, single point"
COc1cc2cc(C(=O)NC(C)c3cccc4ccccc34)c(N)nc2cc1OC (centres undefined),7943,"inhibitor, single point"
COc1ccc(OC)c(/C=C/C(=O)N2C(=O)c3cccc(N)c3C2=O)c1,35481,"inhibitor, single point"
CCc1nn2cc(C(=O)c3cc(Cl)ccc3O)cnc2c1-c1ccc(F)cc1,35481,"inhibitor, single point"
COc1ccc(CCNC(=O)c2cc3c(F)cccc3s2)cc1OC,19952,"inhibitor, partial curve, poor fit"
CCOC(=O)c1cnc(-n2nc(C)cc2C)nc1NNc1nc(-c2ccccc2)cc(-c2ccccc2)n1,7943,"inhibitor, partial curve, poor fit"
CC(NC1=CC(=O)c2cccnc2C1=O)C(O)c1ccccc1 (centres undefined),31622,"inhibitor, partial curve, poor fit"
COc1cc(C(C)=O)ccc1OCC(=O)Nc1ccc(C)c(S(=O)(=O)N2CCCCCC2)c1,3162,"inhibitor, partial curve"
Cc1ccccc1N1CCN(Cc2c[nH]c3ccccc23)CC1,10000,"inhibitor, partial curve, poor fit"
CN(C)c1ccc(NC(=O)Nc2nc(C(N)C3CCCCC3)cs2)cc1 (centres undefined),15848,"inhibitor, partial curve, poor fit"
COc1cccc(C(=O)c2sc(NC(C)C)nc2N)c1,3548,"inhibitor, single point"
CN(C)CCCN(C(=O)c1ccc(S(=O)(=O)N(C)Cc2ccccc2)cc1)c1nc2cc3c(cc2s1)OCO3,28183,"inhibitor, partial curve, poor fit"
NC(Cc1ccc(Cl)cc1)c1csc(Nc2nccc(C(F)(F)F)n2)n1 (centres undefined),28183,"inhibitor, single point"
CN(C)CCNC(=O)c1cccc(-c2cnc3c(NC=O)cc(/C=C/c4ccccc4)cn23)c1,22387,"inhibitor, single point"
C/C(=N\NC(=O)c1ccc(CN2CCc3ccccc3C2)cc1)c1ccccc1O,2512,"inhibitor, partial curve"

The first 5 entries again:

{"structure": "CCCc1ccc(O)c(N=Cc2cc(Br)cc(OCC)c2O)c1", "potency (nM)": "31622", "remark": "inhibitor, single point"}
{"structure": "Cc1cccc(CN2C(=O)/C(=C\\c3ccc(C(=O)NCCN4CCOCC4)cc3)Sc3ccccc32)c1", "potency (nM)": "31622", "remark": "inhibitor, single point"}
{"structure": "NS(=O)(=O)c1ccc(N2N=C(c3ccccc3)CC2c2cccc(Cl)c2)cc1", "stereo": "centres undefined", "potency (nM)": "19952", "remark": "inhibitor, partial curve, poor fit"}
{"structure": "COc1cccc(/C=N/Nc2nc3ccccc3n3cnnc23)c1O", "potency (nM)": "1995", "remark": "inhibitor, partial curve, poor fit"}
{"structure": "C=CCc1cccc(/C=N/NC(=O)CCCNc2ccc(C)cc2)c1O", "potency (nM)": "19952", "remark": "inhibitor, partial curve, poor fit"}

Data taken from PubChem BioAssay AID1745848, deposited by NCATS (2022).